# From the supplement of paper PMC8728848
# Some of the results follow.
# B1: Epa3to2 (Candida glabrata) (protein)
# chain: MGSSHHHHHHSSGLVPRGSHMKRELSSQNPFGYPIGCSPQDVAIIPGLTMELYSYPIVSGTPPNCYDASYVDPEYPRTGYLKRKMVGKSTGVTGNLNYKYSVEKACMVKYGNLPAGYNYNEPLTVSNFTMILYGYFKAQTTGLHTFFVNADDLLYINFGAGNAFDCCKREDSKTKLGEYVAYDIWHVDSSKNKVSLFLEKDLYYPIRMFFNNRDNNSSLDLSFSVNGATDQISDFSGYLYSVPDQPDTCPAHIGYDTTCR
# How the values were obtained:
# Assay in all cases: glycan array binding signal (z-score within array); higher = stronger binding
# Settings in all cases: glycan notation: IUPAC condensed, linker removed
# [1] = target: Gal(b1-4)GlcNAc(b1-3)Gal(b1-4)Glc
# How it was run: (§1)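 Glycan array binding is given as a within-array Z-score, which can be read as non-binding when negative. The arrays, 3228 of them, came from the Consortium for Functional Glycomics database and were retained only where the protein sequence was available. Z-scores were averaged across arrays of the same protein sequence at different concentrations or buffers and across linkers.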
# [2] = target: Gal(b1-4)GlcNAc(b1-3)Gal(b1-4)GlcNAc
# How it was run: as §1
# [3] = target: Gal(b1-4)GlcNAc(b1-3)Gal(b1-4)GlcNAc(b1-2)Man(a1-3)[Gal(b1-4)GlcNAc(b1-3)Gal(b1-4)GlcNAc(b1-2)Man(a1-6)]Man(b1-4)GlcNAc(b1-4)GlcNAc
# How it was run: as §1
# [4] = target: Gal(b1-4)GlcNAc(b1-3)Gal(b1-4)GlcNAc(b1-2)Man(a1-3)[Gal(b1-4)GlcNAc(b1-3)Gal(b1-4)GlcNAc(b1-2)Man(a1-6)]Man(b1-4)GlcNAc(b1-4)[Fuc(a1-6)]GlcNAc
# How it was run: as §1
# [5] = target: Gal(b1-4)GlcNAc(b1-3)Gal(b1-4)GlcNAc(b1-2)[Gal(b1-4)GlcNAc(b1-3)Gal(b1-4)GlcNAc(b1-6)]Man(a1-6)[Gal(b1-4)GlcNAc(b1-3)Gal(b1-4)GlcNAc(b1-2)Man(a1-3)]Man(b1-4)GlcNAc(b1-4)GlcNAc
# How it was run: as §1
# [6] = target: Gal(b1-4)GlcNAc(b1-3)Gal(b1-4)GlcNAc(b1-2)[Gal(b1-4)GlcNAc(b1-3)Gal(b1-4)GlcNAc(b1-6)]Man(a1-6)[Gal(b1-4)GlcNAc(b1-3)Gal(b1-4)GlcNAc(b1-2)Man(a1-3)]Man(b1-4)GlcNAc(b1-4)[Fuc(a1-6)]GlcNAc
# How it was run: as §1
# [7] = target: Gal(b1-4)GlcNAc(b1-3)Gal(b1-4)GlcNAc(b1-3)Gal(b1-4)GlcNAc
# How it was run: as §1
# [8] = target: Gal(b1-4)GlcNAc(b1-3)Gal(b1-4)GlcNAc(b1-3)Gal(b1-4)GlcNAc(b1-2)Man(a1-3)[Gal(b1-4)GlcNAc(b1-3)Gal(b1-4)GlcNAc(b1-3)Gal(b1-4)GlcNAc(b1-2)Man(a1-6)]Man(b1-4)GlcNAc(b1-4)GlcNAc
# How it was run: as §1
# [9] = target: Gal(b1-4)GlcNAc(b1-3)Gal(b1-4)GlcNAc(b1-3)Gal(b1-4)GlcNAc(b1-2)Man(a1-3)[Gal(b1-4)GlcNAc(b1-3)Gal(b1-4)GlcNAc(b1-3)Gal(b1-4)GlcNAc(b1-2)Man(a1-6)]Man(b1-4)GlcNAc(b1-4)[Fuc(a1-6)]GlcNAc
# How it was run: as §1
# [10] = target: Gal(b1-4)GlcNAc(b1-3)Gal(b1-4)GlcNAc(b1-3)Gal(b1-4)GlcNAc(b1-2)[Gal(b1-4)GlcNAc(b1-3)Gal(b1-4)GlcNAc(b1-3)Gal(b1-4)GlcNAc(b1-6)]Man(a1-6)[Gal(b1-4)GlcNAc(b1-3)Gal(b1-4)GlcNAc(b1-3)Gal(b1-4)GlcNAc(b1-2)Man(a1-3)]Man(b1-4)GlcNAc(b1-4)[Fuc(a1-6)]GlcNAc
# How it was run: as §1
# [11] = target: Gal(b1-4)GlcNAc(b1-3)Gal(b1-4)GlcNAc(b1-3)Gal(b1-4)GlcNAc(b1-3)Gal(b1-4)GlcNAc(b1-2)Man(a1-3)[Gal(b1-4)GlcNAc(b1-3)Gal(b1-4)GlcNAc(b1-3)Gal(b1-4)GlcNAc(b1-3)Gal(b1-4)GlcNAc(b1-2)Man(a1-6)]Man(b1-4)GlcNAc(b1-4)GlcNAc
# How it was run: as §1
# [12] = target: Gal(b1-4)GlcNAc(b1-3)Gal(b1-4)GlcNAc(b1-3)Gal(b1-4)GlcNAc(b1-3)Gal(b1-4)GlcNAc(b1-2)Man(a1-3)[Gal(b1-4)GlcNAc(b1-3)Gal(b1-4)GlcNAc(b1-3)Gal(b1-4)GlcNAc(b1-3)Gal(b1-4)GlcNAc(b1-2)Man(a1-6)]Man(b1-4)GlcNAc(b1-4)[Fuc(a1-6)]GlcNAc
# How it was run: as §1
# [13] = target: Gal(b1-4)GlcNAc(b1-3)Gal(b1-4)GlcNAc(b1-3)Gal(b1-4)GlcNAc(b1-3)Gal(b1-4)GlcNAc(b1-2)[Gal(b1-4)GlcNAc(b1-3)Gal(b1-4)GlcNAc(b1-3)Gal(b1-4)GlcNAc(b1-3)Gal(b1-4)GlcNAc(b1-6)]Man(a1-6)[Gal(b1-4)GlcNAc(b1-3)Gal(b1-4)GlcNAc(b1-3)Gal(b1-4)GlcNAc(b1-3)Gal(b1-4)GlcNAc(b1-2)Man(a1-3)]Man(b1-4)GlcNAc(b1-4)[Fuc(a1-6)]GlcNAc
# How it was run: as §1
# [14] = target: Gal(b1-4)GlcNAc(b1-3)Gal(b1-4)GlcNAc(b1-3)Gal(b1-4)GlcNAc(b1-3)Gal(b1-4)GlcNAc(b1-3)Gal(b1-4)GlcNAc(b1-2)Man(a1-3)[Gal(b1-4)GlcNAc(b1-3)Gal(b1-4)GlcNAc(b1-3)Gal(b1-4)GlcNAc(b1-3)Gal(b1-4)GlcNAc(b1-3)Gal(b1-4)GlcNAc(b1-2)Man(a1-6)]Man(b1-4)GlcNAc(b1-4)GlcNAc
# How it was run: as §1
# [15] = target: Gal(b1-4)GlcNAc(b1-3)Gal(b1-4)GlcNAc(b1-3)Gal(b1-4)GlcNAc(b1-3)Gal(b1-4)GlcNAc(b1-3)Gal(b1-4)GlcNAc(b1-2)Man(a1-3)[Gal(b1-4)GlcNAc(b1-3)Gal(b1-4)GlcNAc(b1-3)Gal(b1-4)GlcNAc(b1-3)Gal(b1-4)GlcNAc(b1-3)Gal(b1-4)GlcNAc(b1-2)Man(a1-6)]Man(b1-4)GlcNAc(b1-4)[Fuc(a1-6)]GlcNAc
# How it was run: as §1
# [16] = target: Gal(b1-4)GlcNAc(b1-3)Gal(b1-4)GlcNAc(b1-3)Gal(b1-4)GlcNAc(b1-3)Gal(b1-4)GlcNAc(b1-3)Gal(b1-4)GlcNAc(b1-2)[Gal(b1-4)GlcNAc(b1-3)Gal(b1-4)GlcNAc(b1-3)Gal(b1-4)GlcNAc(b1-3)Gal(b1-4)GlcNAc(b1-3)Gal(b1-4)GlcNAc(b1-6)]Man(a1-6)[Gal(b1-4)GlcNAc(b1-3)Gal(b1-4)GlcNAc(b1-3)Gal(b1-4)GlcNAc(b1-3)Gal(b1-4)GlcNAc(b1-3)Gal(b1-4)GlcNAc(b1-2)Man(a1-3)]Man(b1-4)GlcNAc(b1-4)[Fuc(a1-6)]GlcNAc
# How it was run: as §1
# [17] = target: Gal(b1-4)GlcNAc(b1-3)Gal(b1-4)GlcNAc(b1-3)Gal(b1-4)GlcNAc(b1-3)Gal(b1-4)GlcNAc(b1-3)Gal(b1-4)GlcNAc(b1-3)Gal(b1-4)GlcNAc(b1-2)Man(a1-3)[Gal(b1-4)GlcNAc(b1-3)Gal(b1-4)GlcNAc(b1-3)Gal(b1-4)GlcNAc(b1-3)Gal(b1-4)GlcNAc(b1-3)Gal(b1-4)GlcNAc(b1-3)Gal(b1-4)GlcNAc(b1-2)Man(a1-6)]Man(b1-4)GlcNAc(b1-4)GlcNAc
# How it was run: as §1
# [18] = target: Gal(b1-4)GlcNAc(b1-3)Gal(b1-4)GlcNAc(b1-3)GalNAc
# How it was run: as §1
# [19] = target: Gal(b1-4)GlcNAc(b1-3)Gal(b1-4)GlcNAc(b1-3)[Gal(b1-4)GlcNAc(b1-3)Gal(b1-4)GlcNAc(b1-6)]GalNAc
# How it was run: as §1
binder,measurement,setting,value
B1,glycan array binding signal (z-score),[1],0.733
same,glycan array binding signal (z-score),[2],-0.591
same,glycan array binding signal (z-score),[3],0.022
same,glycan array binding signal (z-score),[4],0.303
same,glycan array binding signal (z-score),[5],0.786
same,glycan array binding signal (z-score),[6],0.11
same,glycan array binding signal (z-score),[7],-0.689
same,glycan array binding signal (z-score),[8],1
same,glycan array binding signal (z-score),[9],0.162
same,glycan array binding signal (z-score),[10],-0.474
same,glycan array binding signal (z-score),[11],-0.691
same,glycan array binding signal (z-score),[12],-0.034
same,glycan array binding signal (z-score),[13],-0.799
same,glycan array binding signal (z-score),[14],0.722
same,glycan array binding signal (z-score),[15],-0.368
same,glycan array binding signal (z-score),[16],0.276
same,glycan array binding signal (z-score),[17],-0.835
same,glycan array binding signal (z-score),[18],1.26
same,glycan array binding signal (z-score),[19],1.05

# Some of the entries so far, tab-delimited.
binder	measurement	setting	value
B1	glycan array binding signal (z-score)	[14]	0.722
same	glycan array binding signal (z-score)	[15]	-0.368
same	glycan array binding signal (z-score)	[16]	0.276
same	glycan array binding signal (z-score)	[17]	-0.835
same	glycan array binding signal (z-score)	[18]	1.26
